Data from PMC2244710, “The Gammaherpesvirus m2 Protein Manipulates the Fyn/Vav Pathway through a Multidocking Mechanism of Assembly” (PLoS ONE, 2008).

Biological target: T1, wild type mouse Vav1, COS1 (mouse) (UniProt P27870)
T1 sequence: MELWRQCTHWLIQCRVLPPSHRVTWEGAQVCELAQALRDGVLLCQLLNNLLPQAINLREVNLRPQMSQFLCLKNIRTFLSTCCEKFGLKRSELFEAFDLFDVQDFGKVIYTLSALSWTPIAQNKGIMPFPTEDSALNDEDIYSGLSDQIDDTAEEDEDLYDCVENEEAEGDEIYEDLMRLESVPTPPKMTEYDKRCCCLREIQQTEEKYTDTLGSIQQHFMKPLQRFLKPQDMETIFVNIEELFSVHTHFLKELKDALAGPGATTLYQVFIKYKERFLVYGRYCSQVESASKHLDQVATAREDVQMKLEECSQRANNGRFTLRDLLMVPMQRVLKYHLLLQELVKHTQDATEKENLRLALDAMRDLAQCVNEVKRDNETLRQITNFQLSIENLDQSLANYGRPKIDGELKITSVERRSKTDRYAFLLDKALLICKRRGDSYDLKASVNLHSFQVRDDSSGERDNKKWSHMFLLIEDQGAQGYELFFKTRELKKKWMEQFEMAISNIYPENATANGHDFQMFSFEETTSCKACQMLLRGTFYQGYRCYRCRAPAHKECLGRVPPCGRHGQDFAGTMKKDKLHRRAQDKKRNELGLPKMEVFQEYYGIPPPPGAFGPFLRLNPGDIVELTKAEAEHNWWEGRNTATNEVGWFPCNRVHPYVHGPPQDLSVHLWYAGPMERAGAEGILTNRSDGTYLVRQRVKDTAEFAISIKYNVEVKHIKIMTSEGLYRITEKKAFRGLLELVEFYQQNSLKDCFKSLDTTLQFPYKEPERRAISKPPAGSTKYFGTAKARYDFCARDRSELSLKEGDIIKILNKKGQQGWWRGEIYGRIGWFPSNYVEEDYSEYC
Test: co-IP; anti-Vav1 immunoprecipitation from clarified lysates of COS1 cells co-transfected with Vav1 (or mutants), Fyn and M2 (or mutants); 10 mM Tris-HCl pH 7.4, 100 mM NaCl, 0.5% NP-40, 2 h at 4°C; western blot

Substance | binding
M2 Y120D mutant (Myc-tagged), COS1 (murine gammaherpesvirus 68 (MHV-68)) | binds
M2 Y129D mutant (Myc-tagged), COS1 (murine gammaherpesvirus 68 (MHV-68)) | binds

Results are given in words; binding and its absence hold for the method and conditions named. Binding seen in cells or lysates may run through a third protein. Binding can be weak; no strength is given.
